Source: PubChem BioAssay AID602196 (INSERM, 2012)
Test: 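Genes whose knock-down alters cisplatin killing of lung cancer cells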. Cells: human A549 lung cancer cells. Reagent: siRNA pair against human genes. Time to read-out: 48 h transfection before cisplatin; time from cisplatin to read-out not stated. Challenge: cisplatin at a dose killing half of control-siRNA cells; exact dose and duration not given. Read-out: 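Cisplatin cell death as a shift from the 50% death seen with control siRNA; siRNAs toxic or growth-blocking alone scored 0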. Direction: two-siRNA summed score (-2 to +2): higher = both siRNAs protect from cisplatin killing; -2 means both sensitise; mean protection from cisplatin (shift in death) and protection from cisplatin (shift in death), siRNA C and protection from cisplatin (shift in death), siRNA D: higher = protection from cisplatin killing. Call rule: 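siRNAs harmful alone (LDH or WST-1) get 0; others get +1 for less and -1 for more cisplatin killing; genes are active when the two siRNAs give the same sign, summing to ±2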. Calls: active = both siRNAs shift cisplatin killing the same way; inactive = no consistent shift, or siRNA harmful alone.
Shown is one part, drawn at random, of about 23,000 reagents. In the full data, 455 (2%) were called active. 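Active includes both protection and sensitisation; some change values fall well beyond the stated -50 to +50 range.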 Entries without a mark were called inactive. Not stated in the record: the amount of reagent.

| two-siRNA summed score (-2 to +2) | mean protection from cisplatin (shift in death) (%) | protection from cisplatin (shift in death), siRNA C (%) | protection from cisplatin (shift in death), siRNA D (%) | Target gene | PubChem SID |
| --- | --- | --- | --- | --- | --- |
| 0 | 0.4 | -2.6 | 3.4 | LZTR1 (leucine zipper like post translational regulator 1) | SID131507881 |
| 1 | 9.6 | 14 | 5.2 | ELFN2 | SID131520348 |
| 0 | 5.1 | 2 | 8.1 | KLHL24 (kelch like family member 24) | SID131512052 |
| 0 | 21.4 | 15.7 | 27 | VRTN (vertebrae development associated) | SID131518544 |
| -1 | -6.3 | 5.6 | -18.2 | SRGAP1 (SLIT-ROBO Rho GTPase activating protein 1) | SID131501959 |
| 0 | 21.2 | 18.8 | 23.5 | TAAR9 (trace amine associated receptor 9) | SID131518531 |
| 1 | 19 | 16.9 | 21.1 | LOC387702 | SID131522481 |
| 0 | -5.5 | -3.9 | -7.1 | CACNA2D2 | SID131504395 |
| 0 | -1.9 | -11 | 7.2 | E4F1 (E4F transcription factor 1) | SID131506196 |
| 0 | 8.2 | 11 | 5.3 | REG4 (regenerating family member 4) | SID131514720 |
| 0 | 10.1 | 7 | 13.1 | ANKRD40CL (ANKRD40 C-terminal like) | SID131516006 |
| 1 | 6.8 | 11.6 | 1.9 | LOC440723 | SID131519644 |
| 0 | 0.8 | 5.9 | -4.3 | MKLN1 (muskelin 1) | SID131508207 |
| 0 | 0.3 | -4.8 | 5.5 | POLR1D (RNA polymerase I and III subunit D) | SID131507858 |
| 1 | 9 | 8.1 | 9.8 | POLR1D (RNA polymerase I and III subunit D) | SID131520178 |
| 0 | 9.4 | 7.7 | 11.1 | LOC440800 | SID131515601 |
| 0 | 3.3 | 3.9 | 2.7 | LOC402199 | SID131510487 |
| 0 | -0.3 | 3.7 | -4.3 | FLJ31033 | SID131507336 |
| 1 | 9.1 | 22.8 | -4.6 | KIF2B (kinesin family member 2B) | SID131520213 |
| 0 | 2.7 | -12.5 | 17.9 | KLF5 (KLF transcription factor 5) | SID131509971 |
| 0 | -3.2 | -4.6 | -1.8 | CCNF (cyclin F) | SID131505401 |
| 0 | -0.6 | -9 | 7.7 | KNCN (kinocilin) | SID131507048 |
| 1 | 5.6 | -0.5 | 11.6 | HLA-DQB1 (major histocompatibility complex, class II, DQ beta 1) | SID131519430 |
| 0 | 9.8 | 1.3 | 18.4 | TOMM34 (translocase of outer mitochondrial membrane 34) | SID131515881 |
| 1 | 6.3 | 1.2 | 11.4 | STUB1 (STIP1 homology and U-box containing protein 1) | SID131519565 |
| 1 | 10.9 | 16.7 | 5.2 | ATP2B3 (ATPase plasma membrane Ca2+ transporting 3) | SID131520736 |
| 0 | -2.8 | -1.9 | -3.8 | LOC147710 | SID131505622 |
| 0 | 8 | 4.7 | 11.3 | GPR162 (G protein-coupled receptor 162) | SID131514616 |
| 1 | 14.5 | 22.1 | 7 | NPBWR1 (neuropeptides B and W receptor 1) | SID131521712 |
| 2 (active) | 15.6 | 14.4 | 16.7 | NTNG1 (netrin G1) | SID131522980 |
| 0 | 10.5 | 15.5 | 5.4 | RNF183 (ring finger protein 183) | SID131516212 |
| -1 | -9.7 | -28.7 | 9.2 | PEX1 (peroxisomal biogenesis factor 1) | SID131501438 |
| 0 | 3.7 | 1 | 6.3 | LOC441621 | SID131510814 |

3 neighbouring reagents from above, quoted:
| two-siRNA summed score (-2 to +2) | mean protection from cisplatin (shift in death) (%) | protection from cisplatin (shift in death), siRNA C (%) | protection from cisplatin (shift in death), siRNA D (%) | Target gene | PubChem SID |
| --- | --- | --- | --- | --- | --- |
| 2 (active) | 15.6 | 14.4 | 16.7 | NTNG1 (netrin G1) | SID131522980 |
| 0 | 10.5 | 15.5 | 5.4 | RNF183 (ring finger protein 183) | SID131516212 |
| -1 | -9.7 | -28.7 | 9.2 | PEX1 (peroxisomal biogenesis factor 1) | SID131501438 |

Additional reagents follow:
| two-siRNA summed score (-2 to +2) | mean protection from cisplatin (shift in death) (%) | protection from cisplatin (shift in death), siRNA C (%) | protection from cisplatin (shift in death), siRNA D (%) | Target gene | PubChem SID |
| --- | --- | --- | --- | --- | --- |
| -1 | 1.3 | 15.7 | -13.1 | KLRK1 (killer cell lectin like receptor K1) | SID131502655 |
| 0 | -6.5 | -4 | -9.1 | FCN2 (ficolin 2) | SID131504091 |
| 0 | -4.2 | -12.7 | 4.4 | MMGT1 (membrane magnesium transporter 1) | SID131504928 |
| 0 | 1.8 | -6 | 9.6 | CDX4 (caudal type homeobox 4) | SID131509087 |
| -1 | -17.9 | -28.8 | -7.1 | IFT54 (intraflagellar transport 54) | SID131500676 |
| -1 | 9.2 | 32.5 | -14.1 | CDPF1 (cysteine rich DPF motif domain containing 1) | SID131502772 |
| 0 | 22.2 | 6.6 | 37.9 | LOC388344 | SID131518590 |
| 0 | 19.9 | 9.9 | 29.9 | LOC442562 | SID131518455 |
| 1 | 13 | 17.6 | 8.4 | OTUD4 (OTU deubiquitinase 4) | SID131521325 |
| 0 | -11.7 | 3.1 | -26.5 | MED16 (mediator complex subunit 16) | SID131503246 |
| -1 | -7.7 | 4.4 | -19.8 | SCN1B (sodium voltage-gated channel beta subunit 1) | SID131501731 |
| 0 | -0.1 | 3.4 | -3.5 | KLHL30 (kelch like family member 30) | SID131507497 |
| 0 | -3.7 | -9 | 1.7 | PDAP1P3 (PDAP1 pseudogene 3) | SID131505145 |
| -1 | -10.9 | -15.7 | -6.1 | IRGC (immunity related GTPase cinema) | SID131501263 |
| 1 | 8.8 | 3.5 | 14.1 | PLEKHG1 (pleckstrin homology and RhoGEF domain containing G1) | SID131520136 |
| 1 | 15.2 | 25.8 | 4.5 | CES2 (carboxylesterase 2) | SID131521858 |
| 0 | -2.6 | -9.4 | 4.2 | FGL2 (fibrinogen like 2) | SID131505787 |
| -1 | -10.8 | -21.6 | -0.1 | POLQ (DNA polymerase theta) | SID131501277 |
| 1 | 13.1 | 9.7 | 16.5 | LOC343531 | SID131521351 |
| 1 | 16.1 | 4.1 | 28.1 | MAGEA8 (MAGE family member A8) | SID131522063 |
| 1 | 8.8 | 22.8 | -5.3 | RAC1 (Rac family small GTPase 1) | SID131520124 |
| 0 | 5.7 | -8.3 | 19.8 | HMGCS1 (3-hydroxy-3-methylglutaryl-CoA synthase 1) | SID131512669 |
| 1 | 10.5 | 2.8 | 18.2 | IGHV1OR15-1 (immunoglobulin heavy variable 1/OR15-1 (non-functional)) | SID131520617 |
| 1 | 17.1 | 20.9 | 13.2 | PUDP (pseudouridine 5'-phosphatase) | SID131522241 |
